In PMC3601957, “Structural Basis of Rap Phosphatase Inhibition by Phr Peptides” (PLoS Biology, 2013) one finds binding data, which are given here for two molecules.

For assay [1], the target named is T1, RapF^E303A (B. subtilis) (UniProt P71002).
T1 sequence: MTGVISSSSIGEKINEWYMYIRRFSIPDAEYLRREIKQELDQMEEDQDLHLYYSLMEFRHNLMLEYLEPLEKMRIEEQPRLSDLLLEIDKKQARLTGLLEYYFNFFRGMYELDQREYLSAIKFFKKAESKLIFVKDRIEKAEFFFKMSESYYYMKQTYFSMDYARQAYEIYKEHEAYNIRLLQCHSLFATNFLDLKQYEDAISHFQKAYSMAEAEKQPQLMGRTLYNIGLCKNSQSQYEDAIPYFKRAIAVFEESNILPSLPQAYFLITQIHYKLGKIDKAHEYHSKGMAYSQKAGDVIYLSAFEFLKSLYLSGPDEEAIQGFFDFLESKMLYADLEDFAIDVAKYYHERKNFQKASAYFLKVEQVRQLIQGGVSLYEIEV
The assay is described as follows: native gel or EMSA; titration on 8% native gel; 20 µg protein, peptide 50 nM to 1.2 mM in 20 µl buffer A, 15 min at room temperature; midpoint of the transition taken as the apparent Kd; both purified. (A gel shift assay detects complexes by their altered migration in electrophoresis.)

Assay [2] has as its target T2, RapF^N227A (B. subtilis) (UniProt P71002).
T2 sequence: T1 sequence with N227A, A303E
The assay is described as follows: thermal-shift assay (SYPRO Orange); 20 µM RapF, peptides 1 mM; 20 mM Tris-HCl pH 8, 100 mM NaCl; heated at 1°C/min; both purified.

In assay [3] the target is T3, RapF^D194A (B. subtilis) (UniProt P71002).
T3 sequence: T1 sequence with D194A, A303E
Described as above.

Assay [4] concerns the target T1, RapF^E303A (B. subtilis). Described as above.
The target in assay [5] is T1, RapF^E303A (B. subtilis). The experiment in a line: native gel or EMSA; Native-PAGE, Coomassie stained; RapF (WT or mutant) and ComA 10 µM each, Phr peptides 0.5 mM; buffer A (200 mM NaCl, 50 mM Tris-HCl pH 8.0), room temperature, 30 min; both purified.
Assay [6] concerns the target T2, RapF^N227A (B. subtilis). The assay is described as follows: native gel or EMSA; titration on 8% native gel; 20 µg protein, peptide 50 nM to 1.2 mM in 20 µl buffer A, 15 min at room temperature; midpoint of the transition taken as the apparent Kd; both purified.
The target in assay [7] is T3, RapF^D194A (B. subtilis). The assay is described as above.
Assay [8] addresses T2, RapF^N227A (B. subtilis). The experiment in a line: native gel or EMSA; Native-PAGE, Coomassie stained; RapF (WT or mutant) and ComA 10 µM each, Phr peptides 0.5 mM; buffer A (200 mM NaCl, 50 mM Tris-HCl pH 8.0), room temperature, 30 min; both purified.
Assay [9] concerns the target T3, RapF^D194A (B. subtilis). The description is as above.

Changes are numbered by the printed parent chain. These are yes or no findings as the source states them, for the method shown.

B1: PhrC (peptide)
peptide: ERGMT
notes: mature active form of the PhrC precursor; also called PhrC peptide; RapC (PhrC) peptide
Turning to B1, the binding result in assay [1] is on record as “no binding (tested: 0–1.2 mM)”; in [2], “no binding (tested: 1 mM)”; in [3] it was “no binding (tested: 1 mM)”; in assay [4] it was “no binding (tested: 1 mM)”; in assay [5], “no binding (tested: 0.5 mM)”.

B2: PhrF (peptide)
peptide: QRGMI
notes: mature active form of the PhrF precursor; The purchase from Genescript is stated for the crystallisation; no other source is named; also called PhrF peptide; source: bought: Genescript
With B2, the binding result in assay [6] is “no binding (tested: 1.2 mM)”; in [7] it was “no binding (tested: 1.2 mM)”; in [2], “no binding (tested: 1 mM)”; in [3], “no binding (tested: 1 mM)”; in [8], “no binding (tested: 0.5 mM)”; in assay [9] it was “no binding (tested: 0.5 mM)”.
